Measurements: publication PMC9698156
Where two headings read alike, the source gives them in different places. Results are given in words; binding and its absence hold for the method and conditions named. Binding seen in cells or lysates may run through a third protein. For some assays here: Binding calls can cover weak binding; strength is not graded here. For some assays here: Sequences can lack the tags named with a protein.

Amino acid sequences for entries named in this document (tags omitted). A change or cut given only in a name is not applied to a line headed by its entry.
UniProt Q96L96: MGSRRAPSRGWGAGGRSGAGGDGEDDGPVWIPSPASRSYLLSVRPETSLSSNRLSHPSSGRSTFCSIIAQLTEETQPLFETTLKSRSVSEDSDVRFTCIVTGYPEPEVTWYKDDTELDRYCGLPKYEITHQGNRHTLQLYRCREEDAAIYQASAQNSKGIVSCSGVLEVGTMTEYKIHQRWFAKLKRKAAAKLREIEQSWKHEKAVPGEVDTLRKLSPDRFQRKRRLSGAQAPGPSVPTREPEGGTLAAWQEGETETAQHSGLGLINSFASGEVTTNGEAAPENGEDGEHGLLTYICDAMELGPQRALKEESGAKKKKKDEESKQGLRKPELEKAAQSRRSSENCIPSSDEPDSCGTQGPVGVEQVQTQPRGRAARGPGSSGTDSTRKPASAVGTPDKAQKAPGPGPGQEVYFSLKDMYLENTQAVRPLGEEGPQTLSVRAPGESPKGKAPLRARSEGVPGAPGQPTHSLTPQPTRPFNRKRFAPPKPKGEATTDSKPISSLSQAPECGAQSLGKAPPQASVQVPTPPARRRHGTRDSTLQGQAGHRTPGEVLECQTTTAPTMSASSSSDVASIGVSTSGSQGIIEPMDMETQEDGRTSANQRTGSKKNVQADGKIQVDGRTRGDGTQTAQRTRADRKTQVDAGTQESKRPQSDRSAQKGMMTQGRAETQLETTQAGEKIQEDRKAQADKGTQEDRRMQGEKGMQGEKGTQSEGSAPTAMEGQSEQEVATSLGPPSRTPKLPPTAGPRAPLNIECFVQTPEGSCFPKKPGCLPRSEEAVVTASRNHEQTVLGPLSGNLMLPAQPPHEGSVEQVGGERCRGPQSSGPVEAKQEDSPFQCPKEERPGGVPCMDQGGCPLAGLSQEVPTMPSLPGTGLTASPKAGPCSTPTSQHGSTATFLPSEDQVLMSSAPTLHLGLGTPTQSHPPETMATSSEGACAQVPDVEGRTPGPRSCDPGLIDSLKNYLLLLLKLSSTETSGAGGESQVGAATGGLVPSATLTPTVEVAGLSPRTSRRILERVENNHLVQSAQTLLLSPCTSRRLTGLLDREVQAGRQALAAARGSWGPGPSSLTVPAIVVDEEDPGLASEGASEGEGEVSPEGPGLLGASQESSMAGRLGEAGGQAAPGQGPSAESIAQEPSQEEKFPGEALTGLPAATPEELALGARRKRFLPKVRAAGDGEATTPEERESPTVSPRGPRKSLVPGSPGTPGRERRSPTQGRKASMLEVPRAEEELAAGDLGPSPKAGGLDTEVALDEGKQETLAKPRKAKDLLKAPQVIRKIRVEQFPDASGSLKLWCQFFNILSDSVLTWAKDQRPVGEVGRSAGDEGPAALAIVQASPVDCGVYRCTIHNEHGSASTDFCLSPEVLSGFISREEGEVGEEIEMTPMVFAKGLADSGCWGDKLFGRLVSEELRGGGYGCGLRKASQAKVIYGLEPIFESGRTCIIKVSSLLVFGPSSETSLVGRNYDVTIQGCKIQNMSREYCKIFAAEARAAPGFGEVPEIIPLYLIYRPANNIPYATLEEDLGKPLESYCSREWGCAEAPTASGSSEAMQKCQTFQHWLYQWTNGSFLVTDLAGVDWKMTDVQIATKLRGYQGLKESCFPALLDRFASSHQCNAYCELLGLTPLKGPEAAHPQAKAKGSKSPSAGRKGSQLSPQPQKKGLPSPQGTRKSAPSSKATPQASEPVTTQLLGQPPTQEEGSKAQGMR
UniProt P52179: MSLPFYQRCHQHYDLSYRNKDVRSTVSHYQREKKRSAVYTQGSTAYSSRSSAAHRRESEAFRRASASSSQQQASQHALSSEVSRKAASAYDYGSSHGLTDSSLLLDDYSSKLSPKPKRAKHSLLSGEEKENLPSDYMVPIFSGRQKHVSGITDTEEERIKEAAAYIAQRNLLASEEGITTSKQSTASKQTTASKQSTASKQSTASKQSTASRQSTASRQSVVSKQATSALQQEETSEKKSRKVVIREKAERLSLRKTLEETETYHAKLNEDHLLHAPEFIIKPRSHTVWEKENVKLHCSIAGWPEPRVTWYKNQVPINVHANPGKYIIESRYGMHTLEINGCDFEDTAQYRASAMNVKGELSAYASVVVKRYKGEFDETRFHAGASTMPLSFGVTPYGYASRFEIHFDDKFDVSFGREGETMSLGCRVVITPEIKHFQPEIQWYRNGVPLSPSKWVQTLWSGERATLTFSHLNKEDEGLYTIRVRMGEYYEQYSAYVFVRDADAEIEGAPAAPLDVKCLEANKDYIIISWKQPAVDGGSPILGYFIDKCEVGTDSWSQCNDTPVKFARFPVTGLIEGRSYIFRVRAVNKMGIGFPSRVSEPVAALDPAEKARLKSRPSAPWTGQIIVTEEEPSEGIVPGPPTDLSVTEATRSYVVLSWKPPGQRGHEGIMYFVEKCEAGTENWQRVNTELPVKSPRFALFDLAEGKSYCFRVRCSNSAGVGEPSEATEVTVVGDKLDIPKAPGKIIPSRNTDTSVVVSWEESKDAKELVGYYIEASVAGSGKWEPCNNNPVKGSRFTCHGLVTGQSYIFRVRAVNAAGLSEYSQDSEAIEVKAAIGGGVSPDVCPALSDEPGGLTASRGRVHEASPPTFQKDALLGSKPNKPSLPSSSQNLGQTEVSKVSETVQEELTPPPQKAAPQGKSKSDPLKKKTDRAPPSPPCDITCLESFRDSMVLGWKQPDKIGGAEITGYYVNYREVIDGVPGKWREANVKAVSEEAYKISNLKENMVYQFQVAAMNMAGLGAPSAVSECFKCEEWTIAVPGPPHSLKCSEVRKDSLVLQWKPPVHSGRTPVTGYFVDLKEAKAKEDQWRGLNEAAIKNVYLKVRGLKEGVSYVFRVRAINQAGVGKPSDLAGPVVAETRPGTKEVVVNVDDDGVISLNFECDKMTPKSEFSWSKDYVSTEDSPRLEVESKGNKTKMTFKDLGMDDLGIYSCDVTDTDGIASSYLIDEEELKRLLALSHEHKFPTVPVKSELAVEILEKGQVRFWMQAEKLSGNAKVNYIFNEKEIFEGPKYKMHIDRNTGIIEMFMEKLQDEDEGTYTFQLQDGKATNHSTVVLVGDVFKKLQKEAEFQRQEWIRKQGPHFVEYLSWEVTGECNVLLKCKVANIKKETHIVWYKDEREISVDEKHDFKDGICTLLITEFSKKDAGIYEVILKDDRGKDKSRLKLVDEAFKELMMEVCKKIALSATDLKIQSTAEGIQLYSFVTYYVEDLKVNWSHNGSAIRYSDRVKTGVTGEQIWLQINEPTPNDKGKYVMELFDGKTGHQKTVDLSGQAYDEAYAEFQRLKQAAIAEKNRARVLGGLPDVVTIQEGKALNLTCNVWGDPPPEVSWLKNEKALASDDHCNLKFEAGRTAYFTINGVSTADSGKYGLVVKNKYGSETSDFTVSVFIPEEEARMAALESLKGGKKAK

Legend:
human ALPK3-FLAG (human) [1] = target: human ALPK3-FLAG (human) (UniProt Q96L96); experiment: co-IP; HEK293T cells transfected with the tagged proteins; FLAG-IP with anti-FLAG M2 magnetic beads, eluted with SDS-PAGE sample buffer, Western blot (anti-FLAG, anti-HA)
human ALPK3-FLAG (human) [2] = target: human ALPK3-FLAG (human) (UniProt Q96L96); experiment: as above; remark: listed apart in the source

| binding (human ALPK3-FLAG (human) [1]) | binding (human ALPK3-FLAG (human) [2]) | Molecule |
| --- | --- | --- |
| no binding | – | MYOM1-HA (from UniProt P52179 1-1685) |
| – | binds | MYOM2-HA (protein, UniProt P54296 1-1465) MSLVTVPFYQKRHRHFDQSYRNIQTRYLLDEYASKKRASTQASSQKSLSQRSSSQRASSQTSLGGTICRVCAKRVSTQEDEEQENRSRYQSLVAAYGEAKRQRFLSELAHLEEDVHLARSQARDKLDKYAIQQMMEDKLAWERHTFEERISRAPEILVRLRSHTVWERMSVKLCFTVQGFPTPVVQWYKDGSLICQAAEPGKYRIESNYGVHTLEINRADFDDTATYSAVATNAHGQVSTNAAVVVRRFRGDEEPFRSVGLPIGLPLSSMIPYTHFDVQFLEKFGVTFRREGETVTLKCTMLVTPDLKRVQPRAEWYRDDVLLKESKWTKMFFGEGQASLSFSHLHKDDEGLYTLRIVSRGGVSDHSAFLFVRDADPLVTGAPGAPMDLQCHDANRDYVIVTWKPPNTTTESPVMGYFVDRCEVGTNNWVQCNDAPVKICKYPVTGLFEGRSYIFRVRAVNSAGISRPSRVSDAVAALDPLDLRRLQAVHLEGEKEIAIYQDDLEGDAQVPGPPTGVHASEISRNYVVLSWEPPTPRGKDPLMYFIEKSVVGSGSWQRVNAQTAVRSPRYAVFDLMEGKSYVFRVLSANRHGLSEPSEITSPIQAQDVTVVPSAPGRVLASRNTKTSVVVQWDRPKHEEDLLGYYVDCCVAGTNLWEPCNHKPIGYNRFVVHGLTTGEQYIFRVKAVNAVGMSENSQESDVIKVQAALTVPSHPYGITLLNCDGHSMTLGWKVPKFSGGSPILGYYLDKREVHHKNWHEVNSSPSKPTILTVDGLTEGSLYEFKIAAVNLAGIGEPSDPSEHFKCEAWTMPEPGPAYDLTFCEVRDTSLVMLWKAPVYSGSSPVSGYFVDFREEDAGEWITVNQTTTASRYLKVSDLQQGKTYVFRVRAVNANGVGKPSDTSEPVLVEARPGTKEISAGVDEQGNIYLGFDCQEMTDASQFTWCKSYEEISDDERFKIETVGDHSKLYLKNPDKEDLGTYSVSVSDTDGVSSSFVLDPEELERLMALSNEIKNPTIPLKSELAYEIFDKGRVRFWLQAEHLSPDASYRFIINDREVSDSEIHRIKCDKATGIIEMVMDRFSIENEGTYTVQIHDGKAKSQSSLVLIGDAFKTVLEEAEFQRKEFLRKQGPHFAEYLHWDVTEECEVRLVCKVANTKKETVFKWLKDDVLYETETLPNLERGICELLIPKLSKKDHGEYKATLKDDRGQDVSILEIAGKVYDDMILAMSRVCGKSASPLKVLCTPEGIRLQCFMKYFTDEMKVNWCHKDAKISSSEHMRIGGSEEMAWLQICEPTEKDKGKYTFEIFDGKDNHQRSLDLSGQAFDEAFAEFQQFKAAAFAEKNRGRLIGGLPDVVTIMEGKTLNLTCTVFGNPDPEVIWFKNDQDIQLSEHFSVKVEQAKYVSMTIKGVTSEDSGKYSINIKNKYGGEKIDVTVSVYKHGEKIPDMAPPQQAKPKLIPASASAAGQ |
